Laboratory results from PubChem BioAssay AID1347076 (National Center for Advancing Translational Sciences (NCATS), 2019).
In all, about 400,000 compounds went through this assay and about 13,000 (3.2%) were called active. The inconclusive results got no clear call from the source; some entries with a clear call stand among them for comparison. Calls follow the shape of the dose curve; as a rule, active = well fitted cell-killing curve with a large enough effect; inconclusive = small, poorly fitted or top-dose-only effect, or effect the other way; inactive = flat fitted curve, though single readings scatter. Potencies beside an inconclusive call are fits to weak or partial responses and may not hold up.

experiment: qHTS assay for MDR1-selective chemotherapeutics: Primary screen using the drug-selected MDR subline cells KB-V1; settings: KB-V1 MDR cells viability, CellTiter-Glo, 72 h; series mostly up to 46.1 µM; also: nearly all actives have a fitted effect of over 60% in size
Procedure, shortened: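 qHTS viability screen in drug-selected KB-V1 MDR cells: 72 h compound treatment at 37 degrees C, ATP luminescence end point.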
Potency is read from the fitted curve at half-maximal effect.

SMILES	Potency
O=C(Cn1ccc(C(F)(F)F)n1)N/N=C/c1ccc(N2CCOCC2)cc1	inactive
CC(C)(C)c1ccc(C(=O)Nc2ccc3c(c2)C(=O)NC3=O)cc1	inconclusive: 18.4 µM [rising, single point]
CN(C)c1ccc(/C=C/c2nc3ccccc3c(=O)[nH]2)cc1	inactive
COc1cc(-c2[nH]ncc2CN2CCN(Cc3cccs3)CC2)cc(OC)c1OC	inconclusive: 7.31 µM [cytotoxic, partial curve]
Cc1cc(C(=O)O)c2c(=O)n(C)c(=O)n(C)c2n1	inconclusive: 29.1 µM [rising, partial curve, poor fit]
O=C(O)C(CCc1ccccc1)(Cc1ccccc1)C(=O)O	inactive
CN1CC(c2ccc(Cl)c(Cl)c2)[C@@]2(COc3ccccc3C2=O)[C@@]12C(=O)Nc1ccccc12 (some centres undefined)	active: 9.2 µM
CC1(C)CC(=O)C(C(=O)c2ccccc2)C(=O)C1Cl (centres undefined)	inconclusive: 29.1 µM [rising, single point]
CCOC(=O)c1c(C)[nH]c(C)c1C(=O)COC(=O)c1ccc(OC)cc1	inconclusive: 23.1 µM [cytotoxic, single point]
CCC(=O)N(Cc1cc2c(C)ccc(C)c2[nH]c1=O)C1CCCCC1	inconclusive: 3.26 µM [cytotoxic, partial curve, poor fit]
CCc1nnc(NC(=O)c2cc(-c3ccc(C)o3)nc3ccccc23)s1	inconclusive: 14.6 µM [cytotoxic, partial curve, poor fit]
Cc1cccc(N2CCN(C(=O)c3cn(C4CCCCC4)c(=O)c4c3c3ccccc3n4C)CC2)c1C	inactive
Cc1ccc(C)c(-c2nnc(NC(=O)CCS(=O)(=O)c3ccc(F)cc3)o2)c1	inactive
CC1CCc2sc(C(=O)OCC(=O)NCc3ccccc3)cc2C1 (centres undefined)	inconclusive: 29.1 µM [cytotoxic, single point]
COc1ccc(CN2CCC(C(=O)Nc3ccc(Oc4ccccc4)nc3)CC2)cc1F	inconclusive: 4.11 µM [cytotoxic, full curve]
COc1ccc(/C=N/NC(=O)c2ccccc2OC)cc1COc1ccccc1[N+](=O)[O-]	inconclusive: 2.59 µM [cytotoxic, partial curve, poor fit]
COc1cccc(C(=Cc2ccc([N+](=O)[O-])cc2)C(=O)O)c1	inactive
O=C(CCNC(=O)c1ccc(Br)cc1)Nc1cccc(S(=O)(=O)N2CCCCCC2)c1	inconclusive: 23.1 µM [cytotoxic, single point]
O=C(CC(=O)Nc1cc(Cl)ccc1Cl)Nc1cc(Cl)ccc1Cl	inconclusive: 29.1 µM [cytotoxic, single point]
